Values from PubChem BioAssay AID1671195 (Yale University, 2021)
Assay: 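Regulators of LDL receptor activity judged by labelled LDL uptake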 (primary screen). System: human Huh7 hepatoma cells. Knock-down reagent: siRNA pool against human genes, 18 nM. Timing: about 2 to 2.5 days of knockdown, then 8 h LDL uptake. Conditions: DiI-labelled LDL at 30 µg/ml for 8 h, in lipoprotein-deficient serum medium. Measurement: 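Per-cell DiI-LDL intensity by automated imaging; well means scaled to the plate median and given as a robust z-score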. Reading the numbers: robust z-score: higher = more LDL uptake after knockdown. Call rule: 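a gene counts as active if at least two replicate z-scores exceed ±2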.
This is an unselected part of about 22,000 reagents. Over the whole deposit, about 1,510 (6.9%) got an active call. 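Active includes knockdowns raising or lowering LDL uptake; positive z-scores mean more uptake, negative mean less.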 Entries without a mark were called inactive.

gene knocked down | robust z-score, replicate 1 | robust z-score, replicate 2 | robust z-score, replicate 3
BTBD17 | -1.94 (active) | -2.14 | -1.61
CNOT2 | -0.464 | -1.15 | -0.549
LOC401732 (retired record) | -0.556 | -0.625 | 0.412
DDC | -1.62 | -0.947 | -1.62
TFAM | 0.635 | 1.35 | 2.07
IGSF9 | -0.222 | 0.0325 | 2.61
NHLRC1 | 0.946 | -0.0813 | 1
SYNPO2L | -2.43 (active) | -2.24 | -1.63
DGKZ | -0.566 | 0.109 | 0.211
MATN4 | -0.579 | -0.0056 | -0.228
DAB2 | -0.93 | -0.482 | -0.875
TNFRSF10C | 1.62 | 1.5 | 1.3
DMP1 | 0.531 | 0.998 | -1.03
REEP6 | -1.22 | -0.504 | -0.139
LOC219797 (retired record) | -0.175 | 0.16 | 0.155
SLIRP-OT1 | 0.733 | 1.15 | 0.428
TXK | -0.0542 | 0.0347 | -0.261
RIT1 | -0.531 | -1.53 | -1.54
MAP3K21 | 3.93 (active) | 4.98 | 3.63
RTBDN | 1.16 | 1.49 | 0.641
PRKY | -2.43 (active) | -1.79 | -2.18
FCMR | -2.01 | -1.52 | -2.12
HDAC6 | -0.067 | 1.04 | -0.526
ZKSCAN3 | 1.95 | 1.36 | 1.97
PAK2 | 1.48 | 1.63 | 1.68
SYT10 | -2.32 (active) | -2.66 | -2.32
SPATA24 | 0.991 | 1.05 | 1.65
LMTK2 | 1.72 | 0.353 | 0.27
BAIAP2-DT | -2 | -1.59 | -1.8
LOC401921 (retired record) | -0.54 | -1.73 | -0.817
SNHG17 | -0.376 | -0.768 | -0.402
USP36 | -0.265 | -0.364 | -0.286
SIN3A | 0.356 | 0.18 | -0.579
RPAP2 | -1.47 | -1.43 | -1.71
SPN | -0.112 | 1.59 | 0.959
SYPL1 | 1.3 | 1.57 | 1.19
OVOS1P | 1.57 | 0.258 | 0.112
COL4A2 | 1.83 | 0.134 | 1.04
TRABD2A | -0.549 | -0.847 | 0.0914
IL1B | -0.829 | -0.735 | -0.591
SERPINE2 | -0.0423 | 0.501 | 0.975
BANF1 | -1.03 | -1.06 | -1.53
C1orf5 (retired record) | -0.344 | -0.748 | -1.66
KRT25 | -0.245 | -0.0167 | -0.284
PARD6B | 0.846 | 1.28 | 1.05
NBEAL2 | -1.16 | -0.0494 | -0.933

No new results follow: 4 of the entries above.
gene knocked down | robust z-score, replicate 1 | robust z-score, replicate 2 | robust z-score, replicate 3
LOC401732 (retired record) | -0.556 | -0.625 | 0.412
DDC | -1.62 | -0.947 | -1.62
TFAM | 0.635 | 1.35 | 2.07
IGSF9 | -0.222 | 0.0325 | 2.61
